Assay results from publication PMC10817852, “Vascular injury activates the ELK1/SND1/SRF pathway to promote vascular smooth muscle cell proliferative phenotype and neointimal hyperplasia”.
Results are given in words; binding and its absence hold for the method and conditions named. For some of these results: In cells and extracts the contact can be indirect. Some results given as binding are weak or reduced against the parent protein; the word gives no strength. For some of these results: Tags and fused reporters may be left off the sequences shown.

Chains of the proteins cited; added tags and fusions are not shown.
UniProt Q9JHD1: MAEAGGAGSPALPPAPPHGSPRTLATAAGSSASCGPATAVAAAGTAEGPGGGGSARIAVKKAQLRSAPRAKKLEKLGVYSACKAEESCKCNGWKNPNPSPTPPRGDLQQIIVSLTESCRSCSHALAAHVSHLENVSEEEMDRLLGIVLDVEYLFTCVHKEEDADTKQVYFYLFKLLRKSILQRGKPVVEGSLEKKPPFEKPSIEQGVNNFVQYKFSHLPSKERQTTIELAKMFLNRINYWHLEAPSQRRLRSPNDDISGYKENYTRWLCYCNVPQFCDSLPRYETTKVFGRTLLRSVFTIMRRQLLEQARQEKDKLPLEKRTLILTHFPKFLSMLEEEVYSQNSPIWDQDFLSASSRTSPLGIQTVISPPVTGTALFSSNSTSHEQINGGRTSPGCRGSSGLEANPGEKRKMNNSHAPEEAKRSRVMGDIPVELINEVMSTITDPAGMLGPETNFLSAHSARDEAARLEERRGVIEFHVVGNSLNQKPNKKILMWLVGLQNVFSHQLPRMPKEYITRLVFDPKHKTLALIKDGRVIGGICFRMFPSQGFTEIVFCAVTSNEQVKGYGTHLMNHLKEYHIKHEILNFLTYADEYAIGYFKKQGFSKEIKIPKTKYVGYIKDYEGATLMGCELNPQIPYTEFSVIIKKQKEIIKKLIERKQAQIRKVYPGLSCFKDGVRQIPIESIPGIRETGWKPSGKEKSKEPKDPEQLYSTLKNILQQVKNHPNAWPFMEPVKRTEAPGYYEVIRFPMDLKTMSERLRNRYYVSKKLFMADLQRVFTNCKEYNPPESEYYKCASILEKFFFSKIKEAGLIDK
UniProt Q8VIM5: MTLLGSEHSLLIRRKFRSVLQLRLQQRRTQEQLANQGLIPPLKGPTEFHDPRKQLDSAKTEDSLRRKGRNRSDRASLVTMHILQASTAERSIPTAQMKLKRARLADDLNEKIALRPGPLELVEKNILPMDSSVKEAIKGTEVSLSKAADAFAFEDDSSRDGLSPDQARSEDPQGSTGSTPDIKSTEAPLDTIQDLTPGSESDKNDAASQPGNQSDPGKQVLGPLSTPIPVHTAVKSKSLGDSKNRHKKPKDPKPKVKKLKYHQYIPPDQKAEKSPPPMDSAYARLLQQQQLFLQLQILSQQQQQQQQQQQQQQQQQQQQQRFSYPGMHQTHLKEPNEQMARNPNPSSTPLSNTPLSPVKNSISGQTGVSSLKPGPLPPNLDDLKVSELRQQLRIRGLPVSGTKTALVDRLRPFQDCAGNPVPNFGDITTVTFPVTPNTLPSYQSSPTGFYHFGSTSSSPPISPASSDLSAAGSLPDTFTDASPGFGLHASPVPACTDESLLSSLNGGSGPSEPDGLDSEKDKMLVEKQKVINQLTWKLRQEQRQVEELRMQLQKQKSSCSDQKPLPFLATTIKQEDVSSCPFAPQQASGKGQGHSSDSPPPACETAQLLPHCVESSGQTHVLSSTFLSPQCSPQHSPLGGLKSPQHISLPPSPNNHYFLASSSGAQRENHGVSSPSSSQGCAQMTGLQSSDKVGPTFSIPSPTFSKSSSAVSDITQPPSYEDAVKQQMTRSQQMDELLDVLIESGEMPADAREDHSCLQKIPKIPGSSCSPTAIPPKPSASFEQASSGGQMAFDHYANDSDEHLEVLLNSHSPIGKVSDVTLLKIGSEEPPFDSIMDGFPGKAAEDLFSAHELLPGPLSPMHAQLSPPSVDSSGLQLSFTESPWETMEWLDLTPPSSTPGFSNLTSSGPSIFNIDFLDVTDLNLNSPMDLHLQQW

Tests used:
[1] = biological target: T1, Serum response factor (SRF), endogenous (mouse (endogenous in primary VSMCs)) (UniProt Q9JM73); assay: co-IP; indicated antibody or IgG on protein A/G agarose, 2 mg total cell lysate (50 mM Tris-HCl pH 8.0, 150 mM NaCl, 0.2% Nonidet P-40, 2 mM EDTA), 4 °C, 12 h; primary mouse VSMCs (with or without PDGF 40 ng/mL 24 h, Snd1 knockout, FLAG-SND1 overexpression) and mouse femoral arteries after wire injury
T1 sequence: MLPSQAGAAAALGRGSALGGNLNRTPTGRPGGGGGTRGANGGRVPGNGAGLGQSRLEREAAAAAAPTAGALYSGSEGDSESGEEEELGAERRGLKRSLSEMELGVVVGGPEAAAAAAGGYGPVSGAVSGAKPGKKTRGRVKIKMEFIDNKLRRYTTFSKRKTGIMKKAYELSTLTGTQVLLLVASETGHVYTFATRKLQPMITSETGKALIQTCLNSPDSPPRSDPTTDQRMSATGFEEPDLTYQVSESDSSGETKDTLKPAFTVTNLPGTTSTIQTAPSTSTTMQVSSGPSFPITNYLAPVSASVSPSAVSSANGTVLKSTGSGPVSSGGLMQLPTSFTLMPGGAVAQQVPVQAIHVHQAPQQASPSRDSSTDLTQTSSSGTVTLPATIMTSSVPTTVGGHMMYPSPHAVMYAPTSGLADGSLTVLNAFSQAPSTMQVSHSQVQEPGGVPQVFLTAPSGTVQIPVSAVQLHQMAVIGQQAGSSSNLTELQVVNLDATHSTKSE

[2] = biological target: Lysine acetyltransferase 2B (KAT2B), endogenous (mouse (endogenous in primary VSMCs)) (UniProt Q9JHD1); assay: as above
[3] = biological target: T2, Purified SRF (1-266 aa) used in the EMSA (UniProt Q9JM73); assay: native gel or EMSA; 0.1 μg purified SRF (1-266 aa) and SND1 (1-660 aa) with 20 fmol biotin-labeled CArG probe (Fos gene and other genes), room temperature, 6% polyacrylamide gel in 0.5x TBE; complex of both proteins on the DNA; both purified
T2 sequence: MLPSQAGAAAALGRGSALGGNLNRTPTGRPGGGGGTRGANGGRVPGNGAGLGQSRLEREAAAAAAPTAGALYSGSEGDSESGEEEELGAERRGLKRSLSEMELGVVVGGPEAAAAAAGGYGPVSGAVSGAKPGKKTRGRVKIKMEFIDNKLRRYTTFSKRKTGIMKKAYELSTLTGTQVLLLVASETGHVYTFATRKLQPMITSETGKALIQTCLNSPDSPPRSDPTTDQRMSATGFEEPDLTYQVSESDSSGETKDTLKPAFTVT

[4] = biological target: T3, Staphylococcal nuclease domain-containing protein 1 (SND1), endogenous (mouse (endogenous in primary VSMCs)) (UniProt Q78PY7); assay: co-IP; indicated antibody or IgG on protein A/G agarose, 2 mg total cell lysate (50 mM Tris-HCl pH 8.0, 150 mM NaCl, 0.2% Nonidet P-40, 2 mM EDTA), 4 °C, 12 h; primary mouse VSMCs (with or without PDGF 40 ng/mL 24 h, Snd1 knockout, FLAG-SND1 overexpression) and mouse femoral arteries after wire injury
T3 sequence: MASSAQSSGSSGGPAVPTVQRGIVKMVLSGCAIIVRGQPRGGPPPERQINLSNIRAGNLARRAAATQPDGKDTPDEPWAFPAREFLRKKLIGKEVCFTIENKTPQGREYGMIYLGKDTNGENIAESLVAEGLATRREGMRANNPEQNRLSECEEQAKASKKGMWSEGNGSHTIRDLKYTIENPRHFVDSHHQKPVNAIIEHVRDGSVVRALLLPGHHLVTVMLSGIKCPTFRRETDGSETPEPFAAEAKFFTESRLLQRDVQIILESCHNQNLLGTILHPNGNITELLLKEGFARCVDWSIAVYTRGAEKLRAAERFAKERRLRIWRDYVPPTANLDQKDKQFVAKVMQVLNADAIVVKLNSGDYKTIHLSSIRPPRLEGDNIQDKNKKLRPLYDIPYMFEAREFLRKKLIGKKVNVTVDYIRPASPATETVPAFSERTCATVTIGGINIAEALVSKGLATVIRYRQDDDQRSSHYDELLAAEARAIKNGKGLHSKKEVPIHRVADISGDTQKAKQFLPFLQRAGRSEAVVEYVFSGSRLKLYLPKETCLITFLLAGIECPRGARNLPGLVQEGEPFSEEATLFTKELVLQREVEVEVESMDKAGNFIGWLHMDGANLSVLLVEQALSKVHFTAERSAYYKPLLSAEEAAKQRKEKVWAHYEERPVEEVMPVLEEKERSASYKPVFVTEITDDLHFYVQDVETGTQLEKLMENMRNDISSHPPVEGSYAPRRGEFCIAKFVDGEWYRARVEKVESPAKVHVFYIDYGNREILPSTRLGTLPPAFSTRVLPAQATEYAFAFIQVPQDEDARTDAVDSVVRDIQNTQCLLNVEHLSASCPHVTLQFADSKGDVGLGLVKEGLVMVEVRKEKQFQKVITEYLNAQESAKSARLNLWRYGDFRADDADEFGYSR

[5] = biological target: T4, GST-fusion protein containing full-length SND1 (GST-SND1) (UniProt Q78PY7); assay: pull-down; GST-fusion proteins of SND1 (full length, SN, TSN) with in vitro translated SRF; only the target purified
T4 sequence: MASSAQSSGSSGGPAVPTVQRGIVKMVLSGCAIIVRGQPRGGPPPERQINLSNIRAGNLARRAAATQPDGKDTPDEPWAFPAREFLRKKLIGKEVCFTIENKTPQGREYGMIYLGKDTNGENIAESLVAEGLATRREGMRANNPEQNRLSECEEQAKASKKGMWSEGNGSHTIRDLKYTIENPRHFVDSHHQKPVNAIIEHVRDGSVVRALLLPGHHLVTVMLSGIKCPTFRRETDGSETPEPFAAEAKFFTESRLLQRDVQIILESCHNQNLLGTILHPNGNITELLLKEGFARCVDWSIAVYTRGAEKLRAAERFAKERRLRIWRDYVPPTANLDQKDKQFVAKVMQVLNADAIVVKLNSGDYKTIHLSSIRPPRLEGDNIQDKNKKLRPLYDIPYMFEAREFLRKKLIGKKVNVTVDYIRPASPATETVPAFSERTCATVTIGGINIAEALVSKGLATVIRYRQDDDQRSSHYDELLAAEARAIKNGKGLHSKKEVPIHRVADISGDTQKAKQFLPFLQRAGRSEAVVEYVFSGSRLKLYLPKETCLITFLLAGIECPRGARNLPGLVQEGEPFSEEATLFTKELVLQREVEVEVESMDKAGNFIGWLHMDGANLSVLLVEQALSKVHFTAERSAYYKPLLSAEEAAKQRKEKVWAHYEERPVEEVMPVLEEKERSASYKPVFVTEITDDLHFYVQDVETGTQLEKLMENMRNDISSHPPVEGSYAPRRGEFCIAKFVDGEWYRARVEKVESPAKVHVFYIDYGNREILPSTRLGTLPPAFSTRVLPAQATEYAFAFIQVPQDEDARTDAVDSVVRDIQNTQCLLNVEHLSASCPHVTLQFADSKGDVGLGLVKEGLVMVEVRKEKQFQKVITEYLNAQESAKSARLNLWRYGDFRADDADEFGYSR

Molecule: Myocardin (MYOCD) in the Co-IP with SRF (from UniProt Q8VIM5 1-935)
- binding [1]: binds

B1: FLAG-SND1 (pLVX-IRES-FLAG-SND1 lentivirus) (protein, UniProt Q78PY7 1-910)
chain: MASSAQSSGSSGGPAVPTVQRGIVKMVLSGCAIIVRGQPRGGPPPERQINLSNIRAGNLARRAAATQPDGKDTPDEPWAFPAREFLRKKLIGKEVCFTIENKTPQGREYGMIYLGKDTNGENIAESLVAEGLATRREGMRANNPEQNRLSECEEQAKASKKGMWSEGNGSHTIRDLKYTIENPRHFVDSHHQKPVNAIIEHVRDGSVVRALLLPGHHLVTVMLSGIKCPTFRRETDGSETPEPFAAEAKFFTESRLLQRDVQIILESCHNQNLLGTILHPNGNITELLLKEGFARCVDWSIAVYTRGAEKLRAAERFAKERRLRIWRDYVPPTANLDQKDKQFVAKVMQVLNADAIVVKLNSGDYKTIHLSSIRPPRLEGDNIQDKNKKLRPLYDIPYMFEAREFLRKKLIGKKVNVTVDYIRPASPATETVPAFSERTCATVTIGGINIAEALVSKGLATVIRYRQDDDQRSSHYDELLAAEARAIKNGKGLHSKKEVPIHRVADISGDTQKAKQFLPFLQRAGRSEAVVEYVFSGSRLKLYLPKETCLITFLLAGIECPRGARNLPGLVQEGEPFSEEATLFTKELVLQREVEVEVESMDKAGNFIGWLHMDGANLSVLLVEQALSKVHFTAERSAYYKPLLSAEEAAKQRKEKVWAHYEERPVEEVMPVLEEKERSASYKPVFVTEITDDLHFYVQDVETGTQLEKLMENMRNDISSHPPVEGSYAPRRGEFCIAKFVDGEWYRARVEKVESPAKVHVFYIDYGNREILPSTRLGTLPPAFSTRVLPAQATEYAFAFIQVPQDEDARTDAVDSVVRDIQNTQCLLNVEHLSASCPHVTLQFADSKGDVGLGLVKEGLVMVEVRKEKQFQKVITEYLNAQESAKSARLNLWRYGDFRADDADEFGYSR
- binding [1]: binds

B2: Staphylococcal nuclease domain-containing protein 1 (SND1), endogenous (protein, UniProt Q78PY7 1-910)
chain: MASSAQSSGSSGGPAVPTVQRGIVKMVLSGCAIIVRGQPRGGPPPERQINLSNIRAGNLARRAAATQPDGKDTPDEPWAFPAREFLRKKLIGKEVCFTIENKTPQGREYGMIYLGKDTNGENIAESLVAEGLATRREGMRANNPEQNRLSECEEQAKASKKGMWSEGNGSHTIRDLKYTIENPRHFVDSHHQKPVNAIIEHVRDGSVVRALLLPGHHLVTVMLSGIKCPTFRRETDGSETPEPFAAEAKFFTESRLLQRDVQIILESCHNQNLLGTILHPNGNITELLLKEGFARCVDWSIAVYTRGAEKLRAAERFAKERRLRIWRDYVPPTANLDQKDKQFVAKVMQVLNADAIVVKLNSGDYKTIHLSSIRPPRLEGDNIQDKNKKLRPLYDIPYMFEAREFLRKKLIGKKVNVTVDYIRPASPATETVPAFSERTCATVTIGGINIAEALVSKGLATVIRYRQDDDQRSSHYDELLAAEARAIKNGKGLHSKKEVPIHRVADISGDTQKAKQFLPFLQRAGRSEAVVEYVFSGSRLKLYLPKETCLITFLLAGIECPRGARNLPGLVQEGEPFSEEATLFTKELVLQREVEVEVESMDKAGNFIGWLHMDGANLSVLLVEQALSKVHFTAERSAYYKPLLSAEEAAKQRKEKVWAHYEERPVEEVMPVLEEKERSASYKPVFVTEITDDLHFYVQDVETGTQLEKLMENMRNDISSHPPVEGSYAPRRGEFCIAKFVDGEWYRARVEKVESPAKVHVFYIDYGNREILPSTRLGTLPPAFSTRVLPAQATEYAFAFIQVPQDEDARTDAVDSVVRDIQNTQCLLNVEHLSASCPHVTLQFADSKGDVGLGLVKEGLVMVEVRKEKQFQKVITEYLNAQESAKSARLNLWRYGDFRADDADEFGYSR
- binding [1]: binds
- binding [2]: binds

B3: Purified SND1 (1-660 aa) used in the EMSA (domain or fragment, UniProt Q78PY7 1-660)
chain: MASSAQSSGSSGGPAVPTVQRGIVKMVLSGCAIIVRGQPRGGPPPERQINLSNIRAGNLARRAAATQPDGKDTPDEPWAFPAREFLRKKLIGKEVCFTIENKTPQGREYGMIYLGKDTNGENIAESLVAEGLATRREGMRANNPEQNRLSECEEQAKASKKGMWSEGNGSHTIRDLKYTIENPRHFVDSHHQKPVNAIIEHVRDGSVVRALLLPGHHLVTVMLSGIKCPTFRRETDGSETPEPFAAEAKFFTESRLLQRDVQIILESCHNQNLLGTILHPNGNITELLLKEGFARCVDWSIAVYTRGAEKLRAAERFAKERRLRIWRDYVPPTANLDQKDKQFVAKVMQVLNADAIVVKLNSGDYKTIHLSSIRPPRLEGDNIQDKNKKLRPLYDIPYMFEAREFLRKKLIGKKVNVTVDYIRPASPATETVPAFSERTCATVTIGGINIAEALVSKGLATVIRYRQDDDQRSSHYDELLAAEARAIKNGKGLHSKKEVPIHRVADISGDTQKAKQFLPFLQRAGRSEAVVEYVFSGSRLKLYLPKETCLITFLLAGIECPRGARNLPGLVQEGEPFSEEATLFTKELVLQREVEVEVESMDKAGNFIGWLHMDGANLSVLLVEQALSKVHFTAERSAYYKPLLSAEEAAKQRKEKVWAH
- binding [3]: binds

B4: Serum response factor (SRF), endogenous (protein, UniProt Q9JM73 1-504)
chain: MLPSQAGAAAALGRGSALGGNLNRTPTGRPGGGGGTRGANGGRVPGNGAGLGQSRLEREAAAAAAPTAGALYSGSEGDSESGEEEELGAERRGLKRSLSEMELGVVVGGPEAAAAAAGGYGPVSGAVSGAKPGKKTRGRVKIKMEFIDNKLRRYTTFSKRKTGIMKKAYELSTLTGTQVLLLVASETGHVYTFATRKLQPMITSETGKALIQTCLNSPDSPPRSDPTTDQRMSATGFEEPDLTYQVSESDSSGETKDTLKPAFTVTNLPGTTSTIQTAPSTSTTMQVSSGPSFPITNYLAPVSASVSPSAVSSANGTVLKSTGSGPVSSGGLMQLPTSFTLMPGGAVAQQVPVQAIHVHQAPQQASPSRDSSTDLTQTSSSGTVTLPATIMTSSVPTTVGGHMMYPSPHAVMYAPTSGLADGSLTVLNAFSQAPSTMQVSHSQVQEPGGVPQVFLTAPSGTVQIPVSAVQLHQMAVIGQQAGSSSNLTELQVVNLDATHSTKSE
- binding [4]: binds

B5: In vitro translated SRF (protein, UniProt Q9JM73 1-504)
chain: MLPSQAGAAAALGRGSALGGNLNRTPTGRPGGGGGTRGANGGRVPGNGAGLGQSRLEREAAAAAAPTAGALYSGSEGDSESGEEEELGAERRGLKRSLSEMELGVVVGGPEAAAAAAGGYGPVSGAVSGAKPGKKTRGRVKIKMEFIDNKLRRYTTFSKRKTGIMKKAYELSTLTGTQVLLLVASETGHVYTFATRKLQPMITSETGKALIQTCLNSPDSPPRSDPTTDQRMSATGFEEPDLTYQVSESDSSGETKDTLKPAFTVTNLPGTTSTIQTAPSTSTTMQVSSGPSFPITNYLAPVSASVSPSAVSSANGTVLKSTGSGPVSSGGLMQLPTSFTLMPGGAVAQQVPVQAIHVHQAPQQASPSRDSSTDLTQTSSSGTVTLPATIMTSSVPTTVGGHMMYPSPHAVMYAPTSGLADGSLTVLNAFSQAPSTMQVSHSQVQEPGGVPQVFLTAPSGTVQIPVSAVQLHQMAVIGQQAGSSSNLTELQVVNLDATHSTKSE
- binding [5]: binds
